# Measurements as given in PubChem BioAssay AID504444 (National Center for Advancing Translational Sciences (NCATS), 2011).
# Hit rate of the full screen: of about 360,000 compounds, about 7,500 (2.1%) were called active. The inconclusive results got no clear call from the source; some entries with a clear call stand among them for comparison. Calls follow the shape of the dose curve; as a rule, active = well fitted inhibition curve with a large enough effect; inconclusive = small, poorly fitted or top-dose-only effect, or effect the other way; inactive = flat fitted curve, though single readings scatter. Potencies beside an inconclusive call are fits to weak or partial responses and may not hold up.
# Test: Nrf2 qHTS screen for inhibitors; also: nearly all actives have a fitted effect of over 60% in size
# Settings: A549 ARE-Fluc reporter, luciferase luminescence, 18-24 h; series mostly up to 46 µM
# Outline: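 A549 ARE_Fluc cells (5000/well, 5% FBS OPTI-MEM) pre-incubated 2 h, then treated with compounds 18-24 h at 37C/5% CO2 in concentration-response. CellTiter-Fluor viability read first; BugLite luciferase luminescence after 15 min at room temperature gives Nrf2 activity.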
# Potency is read from the fitted curve at half-maximal effect.
row,Structure (SMILES),Potency
1,CN(C)c1nc(SCc2ccc(Cl)cc2)nc2c1CCCC2,"inconclusive: 2.31 µM [falling, full curve]"
2,COc1ccc(N2CCN(C(=O)c3cn(CC4CCCCC4)nn3)CC2)cc1,inactive
3,Cc1nc(COC(=O)c2ccc(S(=O)(=O)N3CCCC3)cc2)cs1,inactive
4,CCNC(=S)N1CCN(c2ccc([N+](=O)[O-])cc2)CC1,"inconclusive: 5.8 µM [falling, partial curve, poor fit]"
5,Cc1ccc(NC(=O)Nc2cccc(F)c2)nc1,"inconclusive: 10.3 µM [activator, partial curve]"
6,COc1ccc(Cc2nc3ccccc3n2Cc2ccccc2C)cc1,"inconclusive: 18.4 µM [falling, single point]"
7,Cc1cc2[nH]c(=O)c(=O)[nH]c2cc1S(=O)(=O)N1CCN(c2ccccc2)CC1,"inconclusive: 20.6 µM [activator, single point]"
8,O=C(NCc1cccc(Cl)c1)c1ccc(NC(=O)N2CCSc3ccccc32)cc1,"inconclusive: 23.1 µM [falling, single point]"
9,Cn1c(=O)c(=O)n(C)c2cc(NS(=O)(=O)c3ccc(Br)cc3)c(Cl)cc21,"inconclusive: 16.4 µM [falling, partial curve, poor fit]"
10,CCn1nc(C)cc1C(=O)N1CCCC(C(=O)c2ccc3ccccc3c2)C1 (stereo not given),"inconclusive: 20.6 µM [falling, single point]"
11,Cc1nn(-c2ccccc2)c2c1P(=O)(O)/C(=C1\N(C)c3ccccc3C1(C)C)C=N2,inactive
12,COCc1cc(C)nc(Nc2cc(C)ccc2C)c1C#N,"inconclusive: 0.731 µM [activator, full curve, poor fit]"
13,C=CCOc1ccc(CN(C)CC(O)COc2cccc3ccccc23)cc1 (stereo not given),inactive
14,c1csc(CNc2ncnc3sccc23)c1,active: 5.8 µM
15,CN(CCC#N)Cc1cc(=O)oc2ccc3ccccc3c12,"inconclusive: 2.06 µM [falling, partial curve, poor fit]"
16,O=C(NC1CCN(S(=O)(=O)c2ccc(F)cc2)CC1)c1ccco1,inactive
17,O=C(Nc1ccc(Oc2ncnc3cc(Cl)ccc23)nc1)c1cccs1,"inconclusive: 6.51 µM [falling, single point]"
18,Cn1c(-c2ncc(F)cc2F)cc2onc(-c3c(F)cccc3Cl)c2c1=O,"inconclusive: 2.31 µM [activator, full curve]"
19,N#Cc1nc(Nc2cccc(Cl)c2)c2ncn(C3CCCC3)c2n1,"inconclusive: 2.06 µM [activator, partial curve]"
20,C#CCOCCOCCOCCNc1nc(N2CCN(C(=O)CCCCCCCCCCNC(=O)[C@H]([C@@H](C)CC)n3cc(CCCCN=C(N)N)nn3)CC2)nc(N2CCN(C(=O)CCCCCCCCCCNC(=O)[C@H](CCCCN)n3cc(C)nn3)CC2)n1,"inconclusive: 29.1 µM [falling, single point]"
21,CC(Sc1nnc(-c2cccnc2)n1-c1ccccc1)C(=O)NCc1ccc2c(c1)OCO2 (stereo not given),"inconclusive: 29.1 µM [activator, single point]"
22,CC(NCC(=O)Nc1cc(S(=O)(=O)N2CCCCCC2)ccc1Cl)c1ccccc1 (stereo not given),"inconclusive: 29.1 µM [falling, single point]"

# Copied from the list:
# Under Potency, `COc1ccc(N2CCN(C(=O)c3cn(CC4CCCCC4)nn3)CC2)cc1` has the entry inactive
# Under Potency, `COCc1cc(C)nc(Nc2cc(C)ccc2C)c1C#N` has the entry inconclusive: 0.731 µM [activator, full curve, poor fit]

# The results go on.

row,Structure (SMILES),Potency
1,O=C(Nc1cccc(-c2csc(Nc3ccc(Cl)cc3)n2)c1)c1cc([N+](=O)[O-])cc(C(F)(F)F)c1,"inconclusive: 29.1 µM [falling, single point]"
2,CC(C)(C)C(=O)Nc1ccc(-c2cn3cccnc3n2)cc1,"inconclusive: 0.731 µM [activator, full curve]"
3,COC(=O)c1cccc(NC(=O)/C(=C\c2ccccc2)NC(=O)c2ccccc2Cl)c1,"inconclusive: 32.6 µM [falling, single point]"
4,C=C(c1ccccc1)c1ccc(N(C)C)cc1,active: 16.4 µM
5,C#CCOCCOCCOCCNc1nc(N2CCN(C(=O)[C@H]([C@@H](C)CC)n3cc([C@@H](N)CO)nn3)CC2)nc(N2CCN(C(=O)[C@H]([C@@H](C)CC)n3cc([C@@H](N)CC(C)C)nn3)CC2)n1,inactive
6,O=C(Nc1onc2c1CCCC2)c1ccccc1,"inconclusive: 0.13 µM [activator, full curve, poor fit]"
7,Cc1cccc(N2C(=O)N3[C@H](c4ccc(F)cc4)[C@@H]4C(=O)N(C5CCCCC5)C(=O)[C@@H]4[C@]3(Cc3ccccc3)C2=O)c1,"inconclusive: 4.61 µM [activator, full curve]"
8,O=c1[nH]c(C2CCCN(S(=O)(=O)c3ccccc3F)C2)nc2c1nnn2Cc1ccccc1Cl (stereo not given),"inconclusive: 3.66 µM [activator, full curve, poor fit]"
9,CN(C(=O)CN1C(=O)NC(C)(c2cccc(Br)c2)C1=O)C1CCCCC1 (stereo not given),"inconclusive: 29.1 µM [falling, single point]"
10,CCn1c2ccccc2c2cc(/C=N/NC(=O)c3ccccc3)ccc21,"inconclusive: 18.4 µM [falling, partial curve, poor fit]"
11,O=C(CC1CC2CCC1C2)NCc1cccs1 (stereo not given),"inconclusive: 23.1 µM [activator, partial curve]"
12,CC1(C)COC(/C=C/c2cccc([N+](=O)[O-])c2)=N1,"inconclusive: 23.1 µM [falling, single point]"
13,c1ccc(OCCCn2nnc(-c3ccncc3)n2)cc1,"inconclusive: 29.1 µM [falling, single point]"
14,Cc1nn(C)c(C)c1S(=O)(=O)N(CC(=O)Nc1ccc(F)cc1F)c1ccc(C(C)C)cc1,inactive
15,COc1ccc(NC(=O)Cn2c(=O)n(-c3ccc(C)cc3)c(=O)c3c2c2cc(C)ccc2n3C)cc1,"inconclusive: 16.4 µM [activator, partial curve, poor fit]"
16,CC(=O)NC(CC(=O)O)C(=O)O (stereo not given),"inconclusive: 29.1 µM [activator, single point]"
17,Cc1ccc(CN2C(=O)SC(Nc3ccc(Cl)cc3)C2=O)cc1 (stereo not given),inactive
18,CC1CCN(c2nc3ccc(C(=O)NC(C)C)cc3s2)CC1,"inconclusive: 2.31 µM [falling, partial curve, poor fit]"
19,COc1ccc(-c2noc(CSc3nc4ccc(C)cc4[nH]3)n2)cc1,"inconclusive: 29.1 µM [falling, single point]"
20,O=C(Cn1nc(Cc2cccnc2)c2ccccc2c1=O)Nc1ccc(F)c(Cl)c1,"inconclusive: 11.6 µM [falling, partial curve, poor fit]"
21,Cc1ccc(OCCCCn2c(CO)nc3ccccc32)cc1,"inconclusive: 10.3 µM [falling, partial curve, poor fit]"
22,COc1ccc(CN(C(=O)CSc2nnc(-c3ccc(F)cc3)o2)c2ccc(F)cc2)cc1,"inconclusive: 16.4 µM [falling, single point]"

row,Structure (SMILES),Potency
1,Cc1ccc(C(=O)N2CCN(c3ccc(C(F)(F)F)cn3)CC2)cc1,inactive
2,C=CCn1c(SCC(=O)N2CCN(CCO)CC2)nc2sc3c(c2c1=O)CCC3,inactive
3,NS(=O)(=O)c1ccc(CNC(=O)c2cccc(S(=O)(=O)N3CCc4ccccc43)c2)cc1,"inconclusive: 29.1 µM [falling, single point]"
4,CC(C)c1ccc(NC(=O)c2cc(Br)ccc2Br)cc1,inactive
5,COc1cc(C(=O)N(Cc2ccccc2)c2cccc(C)c2)ccc1OC(F)F,inactive
6,CCC(C(=O)Nc1cc(C(F)(F)F)ccc1Cl)n1nc(C)c2sc3ccccc3c2c1=O (stereo not given),inactive
7,CCC(C)NC(=O)C1c2ccccc2C(=O)N1Cc1ccccc1OC (stereo not given),"inconclusive: 0.461 µM [activator, full curve, poor fit]"
8,O=C(c1cccc(S(=O)(=O)N2CCN(c3ccccc3)CC2)c1)N1CC=C(c2ccccc2)CC1,"inconclusive: 10.3 µM [falling, partial curve]"
9,CCOC(=O)c1ccc(NC(=S)N2CCSC2c2c(F)cc(F)cc2F)cc1 (stereo not given),"inconclusive: 23.1 µM [falling, single point]"
10,COc1ccc(N=C2CCS(=O)(=O)c3sccc32)cc1,"inconclusive: 8.2 µM [activator, partial curve, poor fit]"
11,O=C(Cn1cnc2onc(-c3ccc(F)cc3)c2c1=O)N1CCN(c2ccc(F)cc2)CC1,"inconclusive: 32.6 µM [falling, single point]"
12,CCOC(=O)Cc1csc(NC(=O)c2ccco2)n1,"inconclusive: 18.4 µM [activator, partial curve]"
13,NC(=O)C1(Nc2ccc(-c3ccc(Br)cc3)cc2)CCCC1,inactive
14,COc1ccc(-c2sc(NC(C)=O)nc2-c2ccccc2)cc1,"inconclusive: 10.3 µM [falling, partial curve]"
15,N#C/C(=C\c1cccc2ccccc12)c1nn(-c2ccccc2)c(N)c1C#N,"inconclusive: 32.6 µM [falling, single point]"
16,COc1cccc(C2C(C(=O)Nc3ccccc3OC)=C(C)Nc3nc(-c4ccco4)nn32)c1 (stereo not given),inactive
17,Cc1[nH]c2ccccc2c1/C=N/Nc1nc(Nc2ccccc2)nc(N2CCOCC2)n1,"inconclusive: 29.1 µM [falling, single point]"
18,COc1ccccc1CNC(=O)c1cnc2sc(N3CCCCC3)nn2c1=O,inactive
19,COc1ccccc1N(CC(=O)Nc1ccc2c(c1)OCCO2)S(C)(=O)=O,inactive
20,Nc1nc(Nc2ccccc2F)nc(NC2CCCCC2)c1[N+](=O)[O-],"inconclusive: 18.4 µM [falling, single point]"
21,O=C1C(Cl)=C(Nc2ccccc2)C(=O)c2ccccc21,inactive
